{
  "source": "the supplement of paper PMC10735217",
  "tested_on": "HEK293A TEAD-LUC reporter",
  "assay": "TEAD-luciferase reporter activity (YAP activation), robust Z score vs plate; higher = stronger YAP/TEAD activation",
  "conditions": "24 h",
  "note": "This is one part of the list. Repeats in this data set agree poorly, so a single value says little.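 Human kidney-derived cells stably carry a construct in which eight TEAD-binding elements drive luciferase, measured by luminescence in a drug-repurposing library screen. A hit is any compound whose signal exceeds the plate mean by more than five robust Z scores.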",
  "data": [
    {"smiles": "COc1cccc(C(=O)NC2CCN(c3ccc4ncc(-c5cccc(C(F)(F)F)c5)n4n3)CC2)c1", "values": [
      {"measurement": "TEAD-luciferase reporter activity", "setting": "compound concentration: 200 nM", "value": "inactive: -1.15"},
      {"measurement": "TEAD-luciferase reporter activity", "setting": "compound concentration: 10 uM", "value": "inactive: 1.65"}
    ]},
    {"smiles": "CC1=C(C(=O)OCOC(=O)C(C)(C)C)N2C(=O)[C@@H](NC(=O)[C@H](N)c3ccccc3)[C@H]2SC1", "note": "[cefalexin pivoxil]", "values": [
      {"measurement": "TEAD-luciferase reporter activity", "setting": "compound concentration: 200 nM", "value": "inactive: -2.02"},
      {"measurement": "TEAD-luciferase reporter activity", "setting": "compound concentration: 2 uM", "value": "inactive: -1.01"},
      {"measurement": "TEAD-luciferase reporter activity", "setting": "compound concentration: 10 uM", "value": "inactive: -1.71"}
    ]},
    {"smiles": "CC(n1ccnc1)C(O)(c1ccc(F)cc1)c1ccc(F)cc1", "note": "(stereo unspecified)", "values": [
      {"measurement": "TEAD-luciferase reporter activity", "setting": "compound concentration: 200 nM", "value": "inactive: 0.37"},
      {"measurement": "TEAD-luciferase reporter activity", "setting": "compound concentration: 2 uM", "value": "inactive: -0.3"},
      {"measurement": "TEAD-luciferase reporter activity", "setting": "compound concentration: 10 uM", "value": "inactive: -0.677"}
    ]},
    {"smiles": "COc1cc(C(=O)NC[C@@H]2CC[C@H]3C[C@@H]2C3(C)C)nc2ccccc12", "values": [
      {"measurement": "TEAD-luciferase reporter activity", "setting": "compound concentration: 200 nM", "value": "inactive: -1.15"},
      {"measurement": "TEAD-luciferase reporter activity", "setting": "compound concentration: 10 uM", "value": "inactive: 4.35"}
    ]},
    {"smiles": "c1ccc2c(SC3=NCCN3)c[nH]c2c1", "note": "[tinazoline]", "values": [
      {"measurement": "TEAD-luciferase reporter activity", "setting": "compound concentration: 200 nM", "value": "inactive: -1.62"},
      {"measurement": "TEAD-luciferase reporter activity", "setting": "compound concentration: 2 uM", "value": "inactive: -0.133"},
      {"measurement": "TEAD-luciferase reporter activity", "setting": "compound concentration: 10 uM", "value": "inactive: 0.0394"}
    ]},
    {"smiles": "NCC(=O)N1Cc2ccccc2CC2(CCCCN2CC2CCCC2)C1", "note": "(stereo unspecified)", "values": [
      {"measurement": "TEAD-luciferase reporter activity", "setting": "compound concentration: 200 nM", "value": "inactive: -0.0449"},
      {"measurement": "TEAD-luciferase reporter activity", "setting": "compound concentration: 10 uM", "value": "inactive: -0.121"}
    ]},
    {"smiles": "COc1cc(C(C)=O)ccc1OCCCN1CCC(C(O)(c2ccc(F)cc2)c2ccc(F)cc2)CC1", "values": [
      {"measurement": "TEAD-luciferase reporter activity", "setting": "compound concentration: 200 nM", "value": "inactive: -0.691"},
      {"measurement": "TEAD-luciferase reporter activity", "setting": "compound concentration: 2 uM", "value": "inactive: -1.2"},
      {"measurement": "TEAD-luciferase reporter activity", "setting": "compound concentration: 10 uM", "value": "inactive: 0.412"}
    ]},
    {"smiles": "CC(C)=CCc1c(O)cc(O)c2c1OC(c1ccc(O)cc1)CC2=O", "note": "(stereo unspecified) [8-Prenylnaringenin]", "values": [
      {"measurement": "TEAD-luciferase reporter activity", "setting": "compound concentration: 200 nM", "value": "inactive: -3.08"},
      {"measurement": "TEAD-luciferase reporter activity", "setting": "compound concentration: 2 uM", "value": "inactive: -1.71"},
      {"measurement": "TEAD-luciferase reporter activity", "setting": "compound concentration: 10 uM", "value": "inactive: 0.0409"}
    ]},
    {"smiles": "Nc1n[n+]([O-])c2ccccc2[n+]1[O-]", "note": "[Tirapazamine]", "values": [
      {"measurement": "TEAD-luciferase reporter activity", "setting": "compound concentration: 200 nM", "value": "inactive: -1.37"},
      {"measurement": "TEAD-luciferase reporter activity", "setting": "compound concentration: 2 uM", "value": "inactive: -0.516"},
      {"measurement": "TEAD-luciferase reporter activity", "setting": "compound concentration: 10 uM", "value": "inactive: 1.34"}
    ]},
    {"smiles": "COc1cc(S(C)=O)sc1-c1nc2ccncc2[nH]1", "note": "(stereo unspecified) [Vasotrope]", "values": [
      {"measurement": "TEAD-luciferase reporter activity", "setting": "compound concentration: 200 nM", "value": "inactive: 2.91"},
      {"measurement": "TEAD-luciferase reporter activity", "setting": "compound concentration: 2 uM", "value": "inactive: -0.902"},
      {"measurement": "TEAD-luciferase reporter activity", "setting": "compound concentration: 10 uM", "value": "inactive: 1.3"}
    ]},
    {"smiles": "O=C(O)c1ccc(Nc2ncc3c(n2)-c2ccc(Cl)cc2C(c2c(F)cccc2F)=NC3)cc1", "values": [
      {"measurement": "TEAD-luciferase reporter activity", "setting": "compound concentration: 200 nM", "value": "inactive: -1.36"},
      {"measurement": "TEAD-luciferase reporter activity", "setting": "compound concentration: 2 uM", "value": "inactive: 1.63"},
      {"measurement": "TEAD-luciferase reporter activity", "setting": "compound concentration: 10 uM", "value": "inactive: -0.142"}
    ]},
    {"smiles": "CCCCCCCCCCCCCC(=O)OCC(COP(=O)([O-])OCC[N+](C)(C)C)OC(=O)CCCCCCCCCCCCC", "note": "(stereo unspecified)", "values": [
      {"measurement": "TEAD-luciferase reporter activity", "setting": "compound concentration: 200 nM", "value": "inactive: -1.65"},
      {"measurement": "TEAD-luciferase reporter activity", "setting": "compound concentration: 2 uM", "value": "inactive: -1.86"},
      {"measurement": "TEAD-luciferase reporter activity", "setting": "compound concentration: 10 uM", "value": "inactive: -1.04"}
    ]},
    {"smiles": "COCCOc1c(OC)cc(Cc2cnc(N)nc2N)cc1OC", "note": "[Tetroxoprim]", "values": [
      {"measurement": "TEAD-luciferase reporter activity", "setting": "compound concentration: 200 nM", "value": "inactive: 0.407"},
      {"measurement": "TEAD-luciferase reporter activity", "setting": "compound concentration: 10 uM", "value": "inactive: 0.404"}
    ]},
    {"smiles": "Cc1ccc(-c2nc(CCCC[C@H]3CO[C@@](C)(C(=O)O)OC3)c(C)o2)cc1", "values": [
      {"measurement": "TEAD-luciferase reporter activity", "setting": "compound concentration: 200 nM", "value": "inactive: -1.29"},
      {"measurement": "TEAD-luciferase reporter activity", "setting": "compound concentration: 2 uM", "value": "inactive: -1.21"},
      {"measurement": "TEAD-luciferase reporter activity", "setting": "compound concentration: 10 uM", "value": "inactive: 0.528"}
    ]},
    {"smiles": "CC(C)(Oc1ccc(Cl)cc1)C(=O)OCCCOC(=O)c1cccnc1", "values": [
      {"measurement": "TEAD-luciferase reporter activity", "setting": "compound concentration: 200 nM", "value": "inactive: 0.405"},
      {"measurement": "TEAD-luciferase reporter activity", "setting": "compound concentration: 2 uM", "value": "inactive: 0.579"},
      {"measurement": "TEAD-luciferase reporter activity", "setting": "compound concentration: 10 uM", "value": "inactive: 0.775"}
    ]},
    {"smiles": "CO[C@@]12[C@H](COC(N)=O)C3=C(C(=O)C(C)=C(N)C3=O)N1C[C@@H]1N[C@@H]12", "note": "[Mitomycin C]", "values": [
      {"measurement": "TEAD-luciferase reporter activity", "setting": "compound concentration: 2 uM", "value": "inactive: -1.2"}
    ]},
    {"smiles": "CO[C@@]12[C@H](COC(N)=O)C3=C(C(=O)C(C)=C(N)C3=O)N1C[C@@H]1N[C@@H]12", "note": "[Mitomycin C from Streptomyces caespitosus]", "values": [
      {"measurement": "TEAD-luciferase reporter activity", "setting": "compound concentration: 200 nM", "value": "inactive: -2.08"},
      {"measurement": "TEAD-luciferase reporter activity", "setting": "compound concentration: 10 uM", "value": "inactive: -0.521"}
    ]},
    {"smiles": "COc1ccc(/C=C\\c2cc(OC)c(OC)c(OC)c2)cc1NC(=O)[C@@H](N)CO", "values": [
      {"measurement": "TEAD-luciferase reporter activity", "setting": "compound concentration: 200 nM", "value": "inactive: 4.07"},
      {"measurement": "TEAD-luciferase reporter activity", "setting": "compound concentration: 2 uM", "value": "active: 5.6"},
      {"measurement": "TEAD-luciferase reporter activity", "setting": "compound concentration: 10 uM", "value": "inactive: 3.37"}
    ]},
    {"smiles": "CS(=O)(=O)N(CCO)c1c(Cl)c(Cl)cc2[nH]c(=O)c(=O)[nH]c12", "values": [
      {"measurement": "TEAD-luciferase reporter activity", "setting": "compound concentration: 200 nM", "value": "inactive: -0.252"},
      {"measurement": "TEAD-luciferase reporter activity", "setting": "compound concentration: 2 uM", "value": "inactive: -0.11"},
      {"measurement": "TEAD-luciferase reporter activity", "setting": "compound concentration: 10 uM", "value": "active: 6.39"}
    ]},
    {"smiles": "COc1ccc2[nH]c(C)c(C(=O)CN3CCN(c4ccccc4OC)CC3)c2c1", "values": [
      {"measurement": "TEAD-luciferase reporter activity", "setting": "compound concentration: 200 nM", "value": "inactive: -0.754"},
      {"measurement": "TEAD-luciferase reporter activity", "setting": "compound concentration: 2 uM", "value": "inactive: -0.61"},
      {"measurement": "TEAD-luciferase reporter activity", "setting": "compound concentration: 10 uM", "value": "inactive: 3.35"}
    ]},
    {"smiles": "COc1ccc(CNc2cn[nH]c(=O)c2Cl)cc1OC", "values": [
      {"measurement": "TEAD-luciferase reporter activity", "setting": "compound concentration: 200 nM", "value": "inactive: 1.94"},
      {"measurement": "TEAD-luciferase reporter activity", "setting": "compound concentration: 2 uM", "value": "inactive: -0.211"},
      {"measurement": "TEAD-luciferase reporter activity", "setting": "compound concentration: 10 uM", "value": "inactive: 2.44"}
    ]},
    {"smiles": "CCOc1cc2cc(CO)c(CO)c(-c3ccnc(-n4nc(-c5cccnc5)c5ccccc5c4=O)c3)c2cc1OCC", "values": [
      {"measurement": "TEAD-luciferase reporter activity", "setting": "compound concentration: 200 nM", "value": "inactive: -0.577"},
      {"measurement": "TEAD-luciferase reporter activity", "setting": "compound concentration: 2 uM", "value": "inactive: -0.919"},
      {"measurement": "TEAD-luciferase reporter activity", "setting": "compound concentration: 10 uM", "value": "inactive: 0.473"}
    ]},
    {"smiles": "NCC(=O)N1CCCC2(Cc3ccccc3CN2C(=O)c2ccccc2)C1", "note": "(stereo unspecified)", "values": [
      {"measurement": "TEAD-luciferase reporter activity", "setting": "compound concentration: 200 nM", "value": "inactive: 2.37"},
      {"measurement": "TEAD-luciferase reporter activity", "setting": "compound concentration: 10 uM", "value": "inactive: 0.037"}
    ]}
  ]
}
